From the supplement of paper PMC10849652
The list shows a part of the results.

Protein sequences, listed by entry. Tags and fused reporters are not part of them. Lines headed by an entry give the natural chain unless they say otherwise; changes in a name come on top.
UniProt Q03154: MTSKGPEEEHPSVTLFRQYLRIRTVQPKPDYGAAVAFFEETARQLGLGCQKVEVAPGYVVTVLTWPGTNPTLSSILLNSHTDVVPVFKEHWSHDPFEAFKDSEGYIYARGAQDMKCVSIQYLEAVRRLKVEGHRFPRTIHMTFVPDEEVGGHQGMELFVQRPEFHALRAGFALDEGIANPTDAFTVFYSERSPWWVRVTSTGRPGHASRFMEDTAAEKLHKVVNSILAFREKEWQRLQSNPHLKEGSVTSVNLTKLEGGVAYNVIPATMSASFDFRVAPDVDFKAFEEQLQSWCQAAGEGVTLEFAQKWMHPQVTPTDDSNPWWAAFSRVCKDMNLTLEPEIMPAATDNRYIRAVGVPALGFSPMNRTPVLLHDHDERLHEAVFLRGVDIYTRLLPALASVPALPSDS
UniProt P33527: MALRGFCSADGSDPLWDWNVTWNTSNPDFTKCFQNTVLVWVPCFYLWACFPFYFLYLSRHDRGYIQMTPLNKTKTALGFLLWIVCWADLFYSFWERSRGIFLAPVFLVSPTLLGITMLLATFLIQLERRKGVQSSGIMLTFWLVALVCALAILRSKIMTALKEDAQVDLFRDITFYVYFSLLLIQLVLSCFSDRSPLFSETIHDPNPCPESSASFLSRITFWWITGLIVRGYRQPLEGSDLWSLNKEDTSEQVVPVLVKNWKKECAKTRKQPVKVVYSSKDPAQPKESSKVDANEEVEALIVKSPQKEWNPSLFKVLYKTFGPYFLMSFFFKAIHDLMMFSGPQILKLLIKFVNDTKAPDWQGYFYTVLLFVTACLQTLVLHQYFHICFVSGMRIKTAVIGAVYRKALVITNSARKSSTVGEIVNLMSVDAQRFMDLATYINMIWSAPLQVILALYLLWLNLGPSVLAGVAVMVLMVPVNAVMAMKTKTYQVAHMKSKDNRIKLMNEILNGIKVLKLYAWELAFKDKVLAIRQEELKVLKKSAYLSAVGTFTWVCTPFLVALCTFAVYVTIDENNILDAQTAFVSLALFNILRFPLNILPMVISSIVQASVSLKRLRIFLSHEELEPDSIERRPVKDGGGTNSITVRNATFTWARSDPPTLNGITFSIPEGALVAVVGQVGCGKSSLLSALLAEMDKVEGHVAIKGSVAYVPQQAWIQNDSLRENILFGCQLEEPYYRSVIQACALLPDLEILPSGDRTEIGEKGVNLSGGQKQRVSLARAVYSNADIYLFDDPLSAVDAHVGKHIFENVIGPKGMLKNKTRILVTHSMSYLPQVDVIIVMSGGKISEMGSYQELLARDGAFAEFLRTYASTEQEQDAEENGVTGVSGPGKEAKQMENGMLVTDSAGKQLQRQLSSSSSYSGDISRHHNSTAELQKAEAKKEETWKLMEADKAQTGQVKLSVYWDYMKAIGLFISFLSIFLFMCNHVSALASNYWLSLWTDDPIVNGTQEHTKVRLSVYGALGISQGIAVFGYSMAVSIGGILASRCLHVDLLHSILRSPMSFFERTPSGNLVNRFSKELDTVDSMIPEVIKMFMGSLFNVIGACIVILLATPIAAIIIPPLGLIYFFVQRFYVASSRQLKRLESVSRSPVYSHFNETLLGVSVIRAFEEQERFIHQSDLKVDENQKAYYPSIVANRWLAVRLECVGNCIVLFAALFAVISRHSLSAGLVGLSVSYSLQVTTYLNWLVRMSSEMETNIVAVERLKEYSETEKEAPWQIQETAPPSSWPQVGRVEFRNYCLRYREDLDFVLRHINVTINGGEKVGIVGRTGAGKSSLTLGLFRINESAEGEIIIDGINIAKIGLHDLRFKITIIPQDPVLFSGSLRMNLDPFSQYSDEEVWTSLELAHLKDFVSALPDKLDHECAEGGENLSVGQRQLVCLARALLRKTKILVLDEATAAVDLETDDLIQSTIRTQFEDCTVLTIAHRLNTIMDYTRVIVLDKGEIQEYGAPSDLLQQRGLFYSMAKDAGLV
UniProt Q9NR19, whole entry, looked up: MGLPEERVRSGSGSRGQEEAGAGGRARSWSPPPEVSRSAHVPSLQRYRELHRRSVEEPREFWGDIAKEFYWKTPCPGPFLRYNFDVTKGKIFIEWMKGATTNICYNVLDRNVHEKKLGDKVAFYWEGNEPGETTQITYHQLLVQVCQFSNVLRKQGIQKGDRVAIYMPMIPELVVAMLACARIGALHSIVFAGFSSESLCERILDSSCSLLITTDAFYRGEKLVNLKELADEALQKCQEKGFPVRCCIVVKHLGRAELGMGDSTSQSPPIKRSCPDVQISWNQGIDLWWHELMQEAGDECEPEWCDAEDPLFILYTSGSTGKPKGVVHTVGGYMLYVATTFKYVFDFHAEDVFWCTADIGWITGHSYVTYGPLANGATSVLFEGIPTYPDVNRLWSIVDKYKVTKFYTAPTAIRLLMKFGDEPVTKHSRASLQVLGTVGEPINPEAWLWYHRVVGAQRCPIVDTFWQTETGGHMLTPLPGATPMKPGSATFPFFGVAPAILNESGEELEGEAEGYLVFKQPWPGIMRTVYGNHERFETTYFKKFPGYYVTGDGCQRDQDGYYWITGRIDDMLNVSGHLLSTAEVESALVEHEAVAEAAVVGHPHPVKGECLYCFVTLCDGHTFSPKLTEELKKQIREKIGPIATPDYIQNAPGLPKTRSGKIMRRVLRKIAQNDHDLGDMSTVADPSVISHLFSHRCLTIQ
UniProt P42765: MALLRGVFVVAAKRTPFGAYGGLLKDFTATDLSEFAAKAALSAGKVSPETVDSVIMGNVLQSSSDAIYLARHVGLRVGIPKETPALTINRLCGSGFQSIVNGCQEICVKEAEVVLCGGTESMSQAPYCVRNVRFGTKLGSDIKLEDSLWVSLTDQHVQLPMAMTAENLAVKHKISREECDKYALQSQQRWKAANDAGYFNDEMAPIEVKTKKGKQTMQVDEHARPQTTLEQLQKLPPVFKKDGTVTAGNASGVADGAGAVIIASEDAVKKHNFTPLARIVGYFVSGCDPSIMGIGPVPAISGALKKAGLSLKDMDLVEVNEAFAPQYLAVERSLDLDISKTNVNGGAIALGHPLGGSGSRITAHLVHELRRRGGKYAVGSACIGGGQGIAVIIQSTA
UniProt Q8N2K0: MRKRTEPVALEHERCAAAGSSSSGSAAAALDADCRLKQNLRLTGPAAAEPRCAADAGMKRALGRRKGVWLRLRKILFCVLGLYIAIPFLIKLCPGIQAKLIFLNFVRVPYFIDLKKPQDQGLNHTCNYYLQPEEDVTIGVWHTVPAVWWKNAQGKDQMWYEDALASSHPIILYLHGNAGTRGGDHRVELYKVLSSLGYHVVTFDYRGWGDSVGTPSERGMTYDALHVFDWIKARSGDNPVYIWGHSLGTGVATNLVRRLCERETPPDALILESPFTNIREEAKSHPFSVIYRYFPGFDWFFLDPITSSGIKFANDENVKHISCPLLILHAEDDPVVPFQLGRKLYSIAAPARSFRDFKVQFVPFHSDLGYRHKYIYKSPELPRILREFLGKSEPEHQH
UniProt Q15067: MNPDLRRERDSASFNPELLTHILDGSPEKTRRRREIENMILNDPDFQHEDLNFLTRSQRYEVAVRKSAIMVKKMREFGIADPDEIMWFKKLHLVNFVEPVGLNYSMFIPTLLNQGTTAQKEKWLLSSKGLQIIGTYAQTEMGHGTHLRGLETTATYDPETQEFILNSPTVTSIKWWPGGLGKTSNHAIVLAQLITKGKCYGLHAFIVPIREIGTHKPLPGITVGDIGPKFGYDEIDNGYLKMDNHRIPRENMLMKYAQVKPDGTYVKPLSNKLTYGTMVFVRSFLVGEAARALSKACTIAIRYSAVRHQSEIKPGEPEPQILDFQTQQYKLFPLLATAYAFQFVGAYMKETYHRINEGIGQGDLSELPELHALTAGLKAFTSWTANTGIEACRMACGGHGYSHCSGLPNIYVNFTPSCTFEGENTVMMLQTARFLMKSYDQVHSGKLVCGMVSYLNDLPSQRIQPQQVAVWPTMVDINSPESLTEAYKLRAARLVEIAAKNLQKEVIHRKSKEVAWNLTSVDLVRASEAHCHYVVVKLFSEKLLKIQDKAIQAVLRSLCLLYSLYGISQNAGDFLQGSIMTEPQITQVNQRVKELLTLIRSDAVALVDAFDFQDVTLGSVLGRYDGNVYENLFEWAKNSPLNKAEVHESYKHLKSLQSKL
UniProt Q6UY14: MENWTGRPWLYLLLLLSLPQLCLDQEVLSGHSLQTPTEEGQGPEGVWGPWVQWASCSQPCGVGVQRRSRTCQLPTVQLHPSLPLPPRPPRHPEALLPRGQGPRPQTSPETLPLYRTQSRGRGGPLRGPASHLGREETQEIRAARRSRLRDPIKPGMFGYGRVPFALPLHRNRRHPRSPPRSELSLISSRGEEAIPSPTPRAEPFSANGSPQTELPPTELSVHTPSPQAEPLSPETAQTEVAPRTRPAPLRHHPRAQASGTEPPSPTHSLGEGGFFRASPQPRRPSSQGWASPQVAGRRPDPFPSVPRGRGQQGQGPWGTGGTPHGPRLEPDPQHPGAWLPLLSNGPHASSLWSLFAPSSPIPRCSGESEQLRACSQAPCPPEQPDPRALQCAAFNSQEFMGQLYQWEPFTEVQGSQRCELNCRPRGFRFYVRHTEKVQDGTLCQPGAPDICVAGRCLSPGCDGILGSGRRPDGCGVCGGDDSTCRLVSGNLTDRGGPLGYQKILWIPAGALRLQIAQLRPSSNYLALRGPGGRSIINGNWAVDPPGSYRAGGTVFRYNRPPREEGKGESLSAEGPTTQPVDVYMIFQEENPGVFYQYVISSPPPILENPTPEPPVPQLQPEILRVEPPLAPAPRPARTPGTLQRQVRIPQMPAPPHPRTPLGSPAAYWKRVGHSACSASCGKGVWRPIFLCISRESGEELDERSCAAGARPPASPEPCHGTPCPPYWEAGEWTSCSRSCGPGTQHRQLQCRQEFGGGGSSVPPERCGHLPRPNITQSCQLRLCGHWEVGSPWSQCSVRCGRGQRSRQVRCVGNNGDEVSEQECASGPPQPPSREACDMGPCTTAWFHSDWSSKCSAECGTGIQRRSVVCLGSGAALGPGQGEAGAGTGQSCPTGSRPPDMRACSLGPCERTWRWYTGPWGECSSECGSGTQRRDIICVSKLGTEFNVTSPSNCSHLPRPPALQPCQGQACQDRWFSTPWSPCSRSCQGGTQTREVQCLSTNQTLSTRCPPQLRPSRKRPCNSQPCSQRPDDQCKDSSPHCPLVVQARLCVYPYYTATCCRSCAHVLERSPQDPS
UniProt Q9H568: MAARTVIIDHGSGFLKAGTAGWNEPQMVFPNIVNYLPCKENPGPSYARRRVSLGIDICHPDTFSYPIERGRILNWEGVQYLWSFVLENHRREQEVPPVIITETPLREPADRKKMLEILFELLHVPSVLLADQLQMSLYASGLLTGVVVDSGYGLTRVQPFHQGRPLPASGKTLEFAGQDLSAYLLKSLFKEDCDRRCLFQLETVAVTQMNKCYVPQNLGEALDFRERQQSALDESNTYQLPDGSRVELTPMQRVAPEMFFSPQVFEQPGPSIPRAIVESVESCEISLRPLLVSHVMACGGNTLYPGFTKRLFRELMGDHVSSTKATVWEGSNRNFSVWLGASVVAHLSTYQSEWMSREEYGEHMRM
UniProt Q9NYB9: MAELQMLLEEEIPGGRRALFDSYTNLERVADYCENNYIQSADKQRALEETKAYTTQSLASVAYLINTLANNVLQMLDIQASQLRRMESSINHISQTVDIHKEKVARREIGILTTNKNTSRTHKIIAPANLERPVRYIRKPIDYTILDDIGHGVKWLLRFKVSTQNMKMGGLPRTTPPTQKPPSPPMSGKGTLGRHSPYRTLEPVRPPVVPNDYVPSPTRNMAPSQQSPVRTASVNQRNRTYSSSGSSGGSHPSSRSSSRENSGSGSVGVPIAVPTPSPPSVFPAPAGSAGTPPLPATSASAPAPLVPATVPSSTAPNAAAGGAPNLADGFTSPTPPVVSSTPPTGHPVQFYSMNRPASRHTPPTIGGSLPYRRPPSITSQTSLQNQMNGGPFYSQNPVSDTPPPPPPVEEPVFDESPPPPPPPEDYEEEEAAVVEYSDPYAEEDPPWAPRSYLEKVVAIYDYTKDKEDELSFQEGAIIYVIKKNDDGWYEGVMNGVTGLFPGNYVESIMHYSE
UniProt Q9Y305: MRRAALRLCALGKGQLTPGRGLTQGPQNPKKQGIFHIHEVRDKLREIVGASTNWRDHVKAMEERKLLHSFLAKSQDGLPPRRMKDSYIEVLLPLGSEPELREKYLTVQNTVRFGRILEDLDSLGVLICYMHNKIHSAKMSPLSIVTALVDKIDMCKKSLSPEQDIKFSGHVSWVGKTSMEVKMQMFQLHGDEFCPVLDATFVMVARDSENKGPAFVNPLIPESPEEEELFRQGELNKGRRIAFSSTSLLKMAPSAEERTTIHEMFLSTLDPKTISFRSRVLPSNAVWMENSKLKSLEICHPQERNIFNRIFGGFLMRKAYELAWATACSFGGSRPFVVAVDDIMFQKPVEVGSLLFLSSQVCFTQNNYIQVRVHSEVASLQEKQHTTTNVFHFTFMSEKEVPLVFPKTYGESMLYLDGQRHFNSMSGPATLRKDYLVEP

Experiments:
Test in all cases: log2 fold change, soluble protein after heating vs DMSO (PISA); higher = thermal stabilisation; K562 cells, 10 uM, 30 min; active = over 0.2 and 3.5 SD of the protein, either way, in both replicates (recomputed)
[1] = compound: COC1=CC=C(C=C1)CN2C=CC3=C2C=C(C=C3)C(=O)NO
Procedure, shortened: (§1)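 Soluble protein was quantified by TMTpro 16plex LC-MS/MS after channel sums were equalised. It was obtained as the supernatant after 21,000xg for 90 min from pooled aliquots of K562 cells (2×10^6 cells/mL, 10 μM compound, 30 min) heated for 3 min across 48°C-58°C and extracted in PBS with 0.5% NP-40 at 4°C. Thermal stability values are relative to control samples and come from duplicates. They are given as log2 fold changes.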

filanesib = compound: CON(C)C(=O)N1N=C(c2cc(F)ccc2F)S[C@@]1(CCCN)c1ccccc1 [filanesib]
Procedure, shortened: as §1

zotarolimus = compound: CO[C@H]1C[C@@H]2CC[C@@H](C)[C@@](O)(O2)C(=O)C(=O)N2CCCC[C@H]2C(=O)O[C@H]([C@H](C)C[C@@H]2CC[C@H](n3cnnn3)[C@H](OC)C2)CC(=O)[C@H](C)/C=C(\C)[C@@H](O)[C@@H](OC)C(=O)[C@H](C)C[C@H](C)/C=C/C=C/C=C/1C [zotarolimus]
Procedure, shortened: as §1

idasanutlin = compound: COc1cc(C(=O)O)ccc1NC(=O)[C@@H]1N[C@@H](CC(C)(C)C)[C@](C#N)(c2ccc(Cl)cc2F)[C@H]1c1cccc(Cl)c1F [idasanutlin]
Procedure, shortened: as §1

alisertib = compound: COc1cc(Nc2ncc3c(n2)-c2ccc(Cl)cc2C(c2c(F)cccc2OC)=NC3)ccc1C(=O)O [alisertib]
Procedure, shortened: as §1

[2] = compound: COc1cc2nc(-c3cc(F)ccc3O)nc(N[C@@H]3CNC[C@H]3C(C)(C)O)c2cc1OC
Procedure, shortened: as §1

gefitinib = compound: COc1cc2ncnc(Nc3ccc(F)c(Cl)c3)c2cc1OCCCN1CCOCC1 [gefitinib]
Procedure, shortened: as §1

[3] = compound: COc1cccc2cc(-c3nc([C@H]4CC[C@H](C(=O)O)CC4)n4ncnc(N)c34)[nH]c12
Procedure, shortened: as §1

lapatinib = compound: CS(=O)(=O)CCNCc1ccc(-c2ccc3ncnc(Nc4ccc(OCc5cccc(F)c5)c(Cl)c4)c3c2)o1 [lapatinib]
Procedure, shortened: as §1

pictilisib = compound: CS(=O)(=O)N1CCN(Cc2cc3nc(-c4cccc5[nH]ncc45)nc(N4CCOCC4)c3s2)CC1 [pictilisib]
Procedure, shortened: as §1

[4] = compound: CS(=O)(=O)c1ccc(-c2cnc(N)c(C(=O)Nc3ccccc3)n2)cc1
Procedure, shortened: as §1

crizotinib = compound: C[C@@H](Oc1cc(-c2cnn(C3CCNCC3)c2)cnc1N)c1c(Cl)ccc(F)c1Cl [crizotinib]
Procedure, shortened: as §1

[5] = compound: C[C@@H]1COCCN1C2=NC(=NC(=C2)C3(CC3)S(=O)(=O)C)C4=C5C=CNC5=CC=C4
Procedure, shortened: as §1

[6] = compound: C[C@H](C1=CC=C(C=C1)C(=O)NC2=C3C=CNC3=NC=C2)N
Procedure, shortened: as §1

duvelisib = compound: C[C@H](Nc1ncnc2nc[nH]c12)c1cc2cccc(Cl)c2c(=O)n1-c1ccccc1 [duvelisib]
Procedure, shortened: as §1

gandotinib = compound: Cc1cc(Nc2cc(CN3CCOCC3)c3nc(C)c(Cc4ccc(Cl)cc4F)n3n2)n[nH]1 [gandotinib]
Procedure, shortened: as §1

tozasertib = compound: Cc1cc(Nc2cc(N3CCN(C)CC3)nc(Sc3ccc(NC(=O)C4CC4)cc3)n2)n[nH]1 [tozasertib]
Procedure, shortened: as §1

[7] = compound: Cc1cc(SCc2sc(-c3ccc(C(F)(F)F)cc3)nc2C)ccc1OCC(=O)O
Procedure, shortened: as §1

doramapimod = compound: Cc1ccc(-n2nc(C(C)(C)C)cc2NC(=O)Nc2ccc(OCCN3CCOCC3)c3ccccc23)cc1 [doramapimod]
Procedure, shortened: as §1

ispinesib = compound: Cc1ccc(C(=O)N(CCCN)[C@@H](c2nc3cc(Cl)ccc3c(=O)n2Cc2ccccc2)C(C)C)cc1 [ispinesib]
Procedure, shortened: as §1

Measured: log2 fold change

ACACA isoform 4 (UniProt Q13085)
inactive: [1] -0.03 | filanesib 0.144 | zotarolimus 0.084 | idasanutlin 0.063 | alisertib -0.093 | [2] 0.096 | gefitinib 0.061 | [3] -0.231 | lapatinib 0.07 | pictilisib -0.009 | [4] 0.049 | crizotinib -0.139 | [5] -0.094 | [6] 0.356 | duvelisib -0.113 | gandotinib -0.002 | tozasertib 0.059 | [7] 0.18 | doramapimod 0.167 | ispinesib -0.205

ACY1 (UniProt Q03154)
inactive: [1] 0.012 | filanesib -0.057 | zotarolimus 0.012 | idasanutlin -0.057 | alisertib -0.047 | [2] 0.043 | gefitinib 0.004 | [3] 0.057 | lapatinib -0.007 | pictilisib 0.09 | [4] -0.034 | crizotinib 0.013 | [5] 0.085 | [6] -0.02 | duvelisib 0.018 | gandotinib 0.034 | tozasertib -0.032 | [7] -0.026 | doramapimod 0.005 | ispinesib -0.003

ADAT3 (UniProt Q96EY9)
inactive: [1] -0.036 | filanesib 0.1 | zotarolimus -0.009 | idasanutlin 0.004 | alisertib -0.219 | [2] 0.088 | gefitinib -0.043 | [3] 0.029 | lapatinib -0.042 | pictilisib 0.175 | [4] 0.068 | crizotinib 0.05 | [5] 0.039 | [6] 0.04 | duvelisib 0.03 | gandotinib -0.234 | tozasertib -0.023 | [7] 0.071 | doramapimod 0.018 | ispinesib 0.045

ABCC1 (UniProt P33527)
inactive: [1] -0.036 | filanesib 0.085 | zotarolimus 0.008 | idasanutlin -0.053 | alisertib -0.035 | [2] 0.067 | gefitinib 0.021 | [3] 0.054 | lapatinib 0.054 | pictilisib 0.053 | [4] 0.026 | crizotinib 0.082 | [5] 0.022 | [6] -0.104 | duvelisib 0.039 | gandotinib -0.076 | tozasertib -0.063 | [7] -0.012 | doramapimod -0.025 | ispinesib 0.125

ACSS2 isoform 2 (UniProt Q9NR19)
inactive: [1] -0.087 | filanesib -0.033 | zotarolimus 0.02 | idasanutlin -0.085 | alisertib -0.032 | [2] 0.049 | gefitinib 0.029 | [3] -0.01 | lapatinib 0 | pictilisib 0.075 | [4] 0.019 | crizotinib 0.004 | [5] 0.077 | [6] -0.021 | duvelisib 0.001 | gandotinib -0.079 | tozasertib 0.012 | [7] 0.005 | doramapimod -0.052 | ispinesib 0.014

ACAA2 (UniProt P42765)
inactive: [1] 0.024 | filanesib -0.01 | zotarolimus -0.03 | idasanutlin -0.004 | alisertib -0.008 | [2] 0.009 | gefitinib -0.002 | [3] 0.081 | lapatinib -0.044 | pictilisib 0.036 | [4] 0.009 | crizotinib 0.076 | [5] 0.004 | [6] -0.06 | duvelisib 0 | gandotinib 0.052 | tozasertib -0.015 | [7] -0.041 | doramapimod 0.011 | ispinesib 0.025

ABHD12 isoform 2 (UniProt Q8N2K0)
inactive: [1] 0.002 | filanesib 0.003 | zotarolimus 0.019 | idasanutlin 0.119 | alisertib -0.035 | [2] -0.016 | gefitinib -0.101 | [3] -0.056 | lapatinib 0.143 | pictilisib 0.021 | [4] -0.015 | crizotinib 0.048 | [5] -0.06 | [6] 0.076 | duvelisib -0.01 | gandotinib -0.033 | tozasertib 0.018 | [7] 0.079 | doramapimod 0.031 | ispinesib -0.114

ACOX1 isoform 2 (UniProt Q15067)
inactive: [1] 0.014 | filanesib -0.103 | zotarolimus -0.023 | idasanutlin -0.033 | alisertib -0.013 | [2] 0.034 | gefitinib 0.049 | [3] 0.077 | lapatinib -0.013 | pictilisib 0.057 | [4] 0.004 | crizotinib -0.016 | [5] -0.001 | [6] -0.121 | duvelisib 0.014 | gandotinib 0.044 | tozasertib 0.023 | [7] 0.011 | doramapimod 0 | ispinesib 0.092

ADAMTSL4 isoform 3 (UniProt Q6UY14)
inactive: [1] -0.089 | filanesib 0.162 | zotarolimus -0.069 | idasanutlin 0.062 | alisertib -0.042 | [2] -0.121 | gefitinib 0.032 | [3] 0.089 | lapatinib 0.088 | pictilisib 0.24 | [4] 0.045 | crizotinib 0.102 | [5] -0.144 | [6] 0.002 | duvelisib -0.081 | gandotinib -0.244 | tozasertib 0.234 | [7] 0.036 | doramapimod -0.035 | ispinesib 0.048

ACTL8 (UniProt Q9H568)
inactive: [1] -0.018 | filanesib 0.093 | zotarolimus -0.039 | idasanutlin -0.037 | alisertib -0.017 | [2] 0.022 | gefitinib 0.054 | [3] 0.044 | lapatinib 0.001 | pictilisib -0.141 | [4] 0.057 | crizotinib 0.094 | [5] -0.03 | [6] -0.003 | duvelisib -0.013 | gandotinib -0.012 | tozasertib -0.022 | [7] -0.008 | doramapimod 0.055 | ispinesib 0.05

ABI2 (UniProt Q9NYB9)
inactive: [1] -0.079 | filanesib -0.042 | zotarolimus 0.026 | idasanutlin -0.059 | alisertib -0.077 | [2] -0.045 | gefitinib 0.03 | [3] -0.002 | lapatinib 0.004 | pictilisib 0.079 | [4] 0.029 | crizotinib -0.055 | [5] 0.002 | [6] -0.081 | duvelisib 0.029 | gandotinib -0.094 | tozasertib -0.052 | [7] 0.037 | doramapimod -0.045 | ispinesib -0.017

AAMDC (UniProt Q9H7C9)
inactive: [1] -0.009 | filanesib -0.029 | zotarolimus 0.02 | idasanutlin -0.069 | alisertib -0.047 | [2] 0.013 | gefitinib -0.033 | [3] 0.033 | lapatinib -0.043 | pictilisib 0.068 | [4] -0.06 | crizotinib 0.085 | [5] 0.067 | [6] -0.077 | duvelisib 0.118 | gandotinib 0.068 | tozasertib 0.048 | [7] -0.022 | doramapimod 0.053 | ispinesib 0.077

ABCE1 (UniProt P61221)
inactive: [1] 0.128 | filanesib -0.047 | zotarolimus 0.011 | idasanutlin -0.001 | alisertib -0.031 | [2] 0.001 | gefitinib -0.013 | [3] 0.054 | lapatinib -0.026 | pictilisib 0.044 | [4] 0 | crizotinib 0.021 | [5] 0 | [6] -0.038 | duvelisib 0.007 | gandotinib -0.007 | tozasertib -0.021 | [7] -0.044 | doramapimod -0.044 | ispinesib 0.033

2 consecutive entries from above, for reference:
AAMDC (UniProt Q9H7C9)
inactive: [1] -0.009 | filanesib -0.029 | zotarolimus 0.02 | idasanutlin -0.069 | alisertib -0.047 | [2] 0.013 | gefitinib -0.033 | [3] 0.033 | lapatinib -0.043 | pictilisib 0.068 | [4] -0.06 | crizotinib 0.085 | [5] 0.067 | [6] -0.077 | duvelisib 0.118 | gandotinib 0.068 | tozasertib 0.048 | [7] -0.022 | doramapimod 0.053 | ispinesib 0.077

ABCE1 (UniProt P61221)
inactive: [1] 0.128 | filanesib -0.047 | zotarolimus 0.011 | idasanutlin -0.001 | alisertib -0.031 | [2] 0.001 | gefitinib -0.013 | [3] 0.054 | lapatinib -0.026 | pictilisib 0.044 | [4] 0 | crizotinib 0.021 | [5] 0 | [6] -0.038 | duvelisib 0.007 | gandotinib -0.007 | tozasertib -0.021 | [7] -0.044 | doramapimod -0.044 | ispinesib 0.033

Later entries.

ACOT9 isoform 4 (UniProt Q9Y305)
inactive: [1] 0.009 | filanesib 0.134 | zotarolimus 0.012 | idasanutlin 0.057 | alisertib -0.11 | [2] -0.095 | gefitinib 0.006 | [3] -0.044 | lapatinib 0.056 | pictilisib -0.027 | [4] -0.008 | crizotinib 0.005 | [5] -0.101 | [6] 0.121 | duvelisib -0.02 | gandotinib 0.104 | tozasertib -0.096 | [7] 0.064 | doramapimod 0.098 | ispinesib 0.071

ACOT7 isoform 7 (UniProt O00154)
inactive: [1] 0.002 | filanesib -0.021 | zotarolimus 0.014 | idasanutlin -0.056 | alisertib -0.161 | [2] 0.002 | gefitinib -0.003 | [3] 0.013 | lapatinib 0.015 | pictilisib 0.009 | [4] 0.009 | crizotinib 0.064 | [5] 0.01 | [6] -0.087 | duvelisib 0.037 | gandotinib -0.024 | tozasertib -0.02 | [7] -0.021 | doramapimod -0.006 | ispinesib 0.045

ACAT1, A0A5F9ZHJ0
inactive: [1] -0.205 | filanesib 0.086 | zotarolimus -0.144 | idasanutlin -0.014 | alisertib -0.133 | [2] 0.103 | gefitinib 0.1 | [3] 0.059 | lapatinib 0.037 | pictilisib 0.003 | [4] -0.022 | crizotinib -0.034 | [5] 0.042 | [6] 0.024 | duvelisib 0.013 | gandotinib -0.135 | tozasertib -0.212 | [7] -0.101 | doramapimod -0.017
